At least one structure is not confirmed: it was looked up by name or label, or the drawing left a doubt.
Test system: anti-creatinine antibody
Test: Lateral flow assay for creatinine with two test lines
Assay type: binding
[1] = 5 ng/ml and 10 ng/ml creatinine
[2] = 100 ng/ml and 1 µg/ml creatinine
[3] = 1 mg/ml creatinine (so in the source)

## CN1CC(=O)NC1=N [creatinine]
[1]
  signal of test line 1: slightly reduced
  signal of test line 2: slightly increased
[2]
  signal intensity of test line 1: significantly reduced
  signal intensity of test line 2: significantly increased
10µg/ml and 100µg/ml creatinine
  signal intensity of test line 2: high
10 µg/ml creatinine
  signal intensity of test line 1: negligible
100 µg/ml creatinine
  signal intensity of test line 1: no signal was observed
[3]
  signal at the antibody test line (test line 1): strong signal
  signal at the avidin test line (test line 2): no signal
